Entries after “also recorded” stand apart in the source; their conditions may differ.
Target: T1, human intestinal bile acid transporter (hIBAT) (Homo sapiens, UniProt Q12908)
T1 construct: expressed in transfected cells; host or cells: COS-7 cells, transient transfection with pCMV5-hIBAT (LipofectAMINE 2000)
T1 sequence (Q12908 1-348): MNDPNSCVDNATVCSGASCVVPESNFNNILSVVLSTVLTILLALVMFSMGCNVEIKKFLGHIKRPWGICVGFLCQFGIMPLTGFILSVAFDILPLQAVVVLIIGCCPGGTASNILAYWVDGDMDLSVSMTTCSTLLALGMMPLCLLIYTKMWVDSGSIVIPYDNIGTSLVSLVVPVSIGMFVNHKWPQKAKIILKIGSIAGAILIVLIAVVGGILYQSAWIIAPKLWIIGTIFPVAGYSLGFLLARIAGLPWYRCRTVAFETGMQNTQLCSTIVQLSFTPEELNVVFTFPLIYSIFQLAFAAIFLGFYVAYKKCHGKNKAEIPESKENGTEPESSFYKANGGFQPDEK
Test: Competitive inhibition of 3H-taurocholate uptake in COS-hIBAT cells
Type: cell-based
Details: 0.25 μM 3H-taurocholate, valacyclovir 10 to 600 μM, atenolol 10 to 200 μM, glycine and taurine 50 to 200 μM, bile acids 1 to 100 μM
Method: Cell dilutions are streaked on nutrient agar plates containing 50 μg/ml ampicillin, and incubated at 37° C. overnight. Isolated colonies are selected aseptically, and are used to inoculate a 200 ml nutrient broth culture containing 50 μg/ml ampicillin. […] After an isopropanol precipitation and ethanol wash, the DNA is reconstituted in 600 μl of sterile deionized water. […] Cells are transfected at 24 hours post seeding. For each well transfected, 0.8 μg hIBAT cDNA is combined with LipofectAMINE 2000 reagent and incubated at room temperature for 20 minutes to allow complexes to form. A volume of 100 μl of hIBAT-lipid complex is added to each well of cells.
Uptake studies are performed on COS-hIBAT cells at 24 hours post-transfection. […] Because bile acid transport is sodium dependent, this MHBSS approach allows for the simple modification of the uptake buffer to exclude all sources of sodium, and thus enables for a control uptake assay under sodium-free conditions.
Incubation conditions and analysis are performed as described for the Km and Vmax studies. The following equation (Formula 2) is used to estimate the Ki for a series of naturally occurring bile acids: [formula]
Inhibition studies are performed in triplicate.

## CC(C)NCC(O)COc1ccc(CC(N)=O)cc1 (stereo not shown) [atenolol]
  inhibition of 3H-taurocholate uptake / interaction with hIBAT (in words): do not inhibit; also recorded: does not interact

— patent US20030212051A1, “Bile acid containing prodrugs with enhanced bioavailabilty” (priority 2003, published 2003)
